# Results from US11672772B2, “Use of glycyrrhetinic acid, glycyrrhizic acid and related compounds for mitigation and/or treatment of pneumonitis/pneumonia/pulmonary fibrosis induced by virus infection and/or by chemical or biological agents” (priority 2020, dated 2023).
# For some of these results: At least one structure is not confirmed: it was looked up by name or label, or the drawing left a doubt. Some results were stated once for a whole list of compounds, not compound by compound.
# Legend:
# BLM-pneumonitis = BLM-pneumonitis in C57BL/6 mice; type: in vivo
# Experimental: The subject invention provides an easy-perform mouse model with inhalation of 110-130 ul of liquid dissolved with various chemicals (e.g., anti-cancer drug or toxic paraquat) deep into whole lung to induce chemicals-pneumonitis. Compared with currently used intratracheal instillation, this new method is more quick (finished within 3 minutes) and non-invasion without surgically exposing the trachea. It delivers agents using a micropipette into the trachea at the back of the throat and allows the mouse to inhale into the lung with operator help for liquid deep-even distribution in the whole lung. This easy operation can quickly set-up for more than one hundred mice with chemicals-pneumonitis, providing enough mice for the screening or validating of various chemical or biological agents for anti-lung inflammation/infection to meet clinical needs.
# A. After anesthesia, a rubber band was attached to the front teeth of the mice, and the mouse body was vertically upright. The tip of the tongue was pulled out with forceps, and 100-130 ul of liquid reagent was dripped into the upper part of the trachea at the back of the throat. The reagent was naturally inhaled into the mouse lung. […] Entire process was about one minute.
# B. The mouse held firmly in the hands of the operator, moved up and down for 3-5 times to let the liquid moving deep into the lung, rotated around for 2-3 circles and repeated for 3 times to let the liquid evenly distributed in the lung. Entire process was about one minute.
# C57BL/6 mice (8 weeks, male) were anesthetized and inhalated 110 ul of 5 mg/ml Bleomycin (BLM) to induce BLM-pneumonitis (new method in FIG. 2). Then, the mice were randomly divided into groups (7 mice/group) and orally given different agents: 1) Normal: as time control without any treatment; 2) NS: treated with saline as vehicle control (all agents in saline); 3) Dexamethasone: 1 mg/kg/day of Dexamethasone; 4) GR: at the indicated three different doses of GR; 5) GA: at the indicated three different doses of GA. Due to the severe BLM-pneumonitis, the inflammatory factors (such as MPO, IL 6 etc.) were released to cause acute reactions: dilation of alveolar capillaries, increased permeability, plasma exudation, blood cells entering the lung interstitium/alveoli, resulting in an increased wet weight of whole lung. The lung index was calculated as: whole lung wet weight/body weight. The higher of lung index, the severer of pneumonitis.
# C57BL/6 mice (8 weeks, male) were anesthetized and inhalated 110 ul of 5 mg/ml Bleomycin (BLM) to induce BLM-pneumonitis (new method in FIG. 2). Then, the mice were randomly divided into four groups and orally given different agents: 1) NS: vehicle of saline; 2) Dexamethasone: 1 mg/kg/day of Dexamethasone; 3) GR: 70 mg/kg/day of GR; 4) GA: 22 mg/kg/day of GA. Due to the severe lung inflammation, the body weights of mice were lost during 2 weeks.
# [1] = test system: various chemicals-induced pneumonitis (Bleomycin, Cisplatin, 5-Fluorouracil, Mitomycin, Methotrexate, paraquat); assay: Various chemicals-induced pneumonitis in ICR mice; type: in vivo
# [2] = C57BL/6 mice with BLM-pneumonitis, vs saline-treated
compound,measurement,setting,value
glycyrrhetinic acid [GA],therapeutic window (ED50/LD50),Therapeutic window,400-1000
"C[C@@H]1C[C@H]2[C@@H]3CCC4=CC(=O)C=C[C@]4(C)[C@@]3(F)[C@@H](O)C[C@]2(C)[C@@]1(O)C(=O)CO [Dexamethasone, reference compound]",neutrophils %,BLM-pneumonitis; C57BL/6 mice with BLM-pneumonitis,further increased
same,lymphocytes %,BLM-pneumonitis; [2],further reduced
same,number of lymphocytes,BLM-pneumonitis; [2],further reduced
same,body weight,"BLM-pneumonitis; C57BL/6 mice, BLM, oral Dexamethasone 1, GR 70, GA 22 mg/kg/day, 2 weeks",did not prevent the loss of body weight
same,lung index (whole lung wet weight/body weight),"BLM-pneumonitis; C57BL/6 mice, inhaled BLM, oral Dexamethasone 1 mg/kg/day, GR or GA at three doses, vs NS",reduced
same,NLR (ratio of neutrophils to lymphocytes),[1],not seen
